Publication PMC8343220, “The selectivity of α‐adrenoceptor agonists for the human α1A, α1B, and α1D‐adrenoceptors” (Pharmacology Research & Perspectives, 2021)

Key:
Format in all cases: cell-based, Chinese hamster
[1] = system: parental CHO cell line without any transfected receptors; assay: Intracellular calcium mobilization, parent CHO cells without transfected receptors
[2] = system: parental CHO cell line without any transfected receptors; assay: ERK1/2‐phosphorylation, parent CHO cells without transfected receptors
[3] = system: parental CHO cell line without any transfected receptors; assay: ^3H‐cAMP accumulation, parent CHO cells without transfected receptors
[4] = system: parental CHO cell line without any transfected receptors; assay: Forskolin‐stimulated cAMP accumulation, parent CHO cells without transfected receptors

COc1ccc(CC(C)NCC(O)c2ccc(O)c(NC=O)c2)cc1 (stereo not shown) [Formoterol]
No response: Intracellular calcium release % ionomycin [1] | ERK1/2-phosphorylation % PDBu [2] | cAMP accumulation % forskolin [3] | cAMP accumulation (in presence of forskolin) % forskolin-stim cAMP [4]
